From the supplement of paper PMC11006884
The list shows a part of the results, in another mix than the full data. Single values of this set are uncertain.

Amino acid sequences for entries named in this document (tags omitted). A change or cut given only in a name is not applied to a line headed by its entry.
UniProt Q9Y6W5, whole entry: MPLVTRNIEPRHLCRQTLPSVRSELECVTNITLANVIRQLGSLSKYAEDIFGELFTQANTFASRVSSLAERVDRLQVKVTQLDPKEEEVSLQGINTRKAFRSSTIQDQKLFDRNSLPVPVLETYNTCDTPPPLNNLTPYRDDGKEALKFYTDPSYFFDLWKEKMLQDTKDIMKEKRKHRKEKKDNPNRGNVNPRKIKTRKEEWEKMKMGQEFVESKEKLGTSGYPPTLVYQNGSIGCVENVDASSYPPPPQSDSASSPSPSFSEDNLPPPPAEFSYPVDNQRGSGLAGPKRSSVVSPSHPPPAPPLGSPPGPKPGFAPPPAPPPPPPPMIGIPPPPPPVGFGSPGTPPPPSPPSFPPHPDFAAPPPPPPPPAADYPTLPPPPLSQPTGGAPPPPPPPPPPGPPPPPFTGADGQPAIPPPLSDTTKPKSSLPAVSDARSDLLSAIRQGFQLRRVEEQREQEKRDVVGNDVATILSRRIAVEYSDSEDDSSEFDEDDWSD
UniProt Q9Y490: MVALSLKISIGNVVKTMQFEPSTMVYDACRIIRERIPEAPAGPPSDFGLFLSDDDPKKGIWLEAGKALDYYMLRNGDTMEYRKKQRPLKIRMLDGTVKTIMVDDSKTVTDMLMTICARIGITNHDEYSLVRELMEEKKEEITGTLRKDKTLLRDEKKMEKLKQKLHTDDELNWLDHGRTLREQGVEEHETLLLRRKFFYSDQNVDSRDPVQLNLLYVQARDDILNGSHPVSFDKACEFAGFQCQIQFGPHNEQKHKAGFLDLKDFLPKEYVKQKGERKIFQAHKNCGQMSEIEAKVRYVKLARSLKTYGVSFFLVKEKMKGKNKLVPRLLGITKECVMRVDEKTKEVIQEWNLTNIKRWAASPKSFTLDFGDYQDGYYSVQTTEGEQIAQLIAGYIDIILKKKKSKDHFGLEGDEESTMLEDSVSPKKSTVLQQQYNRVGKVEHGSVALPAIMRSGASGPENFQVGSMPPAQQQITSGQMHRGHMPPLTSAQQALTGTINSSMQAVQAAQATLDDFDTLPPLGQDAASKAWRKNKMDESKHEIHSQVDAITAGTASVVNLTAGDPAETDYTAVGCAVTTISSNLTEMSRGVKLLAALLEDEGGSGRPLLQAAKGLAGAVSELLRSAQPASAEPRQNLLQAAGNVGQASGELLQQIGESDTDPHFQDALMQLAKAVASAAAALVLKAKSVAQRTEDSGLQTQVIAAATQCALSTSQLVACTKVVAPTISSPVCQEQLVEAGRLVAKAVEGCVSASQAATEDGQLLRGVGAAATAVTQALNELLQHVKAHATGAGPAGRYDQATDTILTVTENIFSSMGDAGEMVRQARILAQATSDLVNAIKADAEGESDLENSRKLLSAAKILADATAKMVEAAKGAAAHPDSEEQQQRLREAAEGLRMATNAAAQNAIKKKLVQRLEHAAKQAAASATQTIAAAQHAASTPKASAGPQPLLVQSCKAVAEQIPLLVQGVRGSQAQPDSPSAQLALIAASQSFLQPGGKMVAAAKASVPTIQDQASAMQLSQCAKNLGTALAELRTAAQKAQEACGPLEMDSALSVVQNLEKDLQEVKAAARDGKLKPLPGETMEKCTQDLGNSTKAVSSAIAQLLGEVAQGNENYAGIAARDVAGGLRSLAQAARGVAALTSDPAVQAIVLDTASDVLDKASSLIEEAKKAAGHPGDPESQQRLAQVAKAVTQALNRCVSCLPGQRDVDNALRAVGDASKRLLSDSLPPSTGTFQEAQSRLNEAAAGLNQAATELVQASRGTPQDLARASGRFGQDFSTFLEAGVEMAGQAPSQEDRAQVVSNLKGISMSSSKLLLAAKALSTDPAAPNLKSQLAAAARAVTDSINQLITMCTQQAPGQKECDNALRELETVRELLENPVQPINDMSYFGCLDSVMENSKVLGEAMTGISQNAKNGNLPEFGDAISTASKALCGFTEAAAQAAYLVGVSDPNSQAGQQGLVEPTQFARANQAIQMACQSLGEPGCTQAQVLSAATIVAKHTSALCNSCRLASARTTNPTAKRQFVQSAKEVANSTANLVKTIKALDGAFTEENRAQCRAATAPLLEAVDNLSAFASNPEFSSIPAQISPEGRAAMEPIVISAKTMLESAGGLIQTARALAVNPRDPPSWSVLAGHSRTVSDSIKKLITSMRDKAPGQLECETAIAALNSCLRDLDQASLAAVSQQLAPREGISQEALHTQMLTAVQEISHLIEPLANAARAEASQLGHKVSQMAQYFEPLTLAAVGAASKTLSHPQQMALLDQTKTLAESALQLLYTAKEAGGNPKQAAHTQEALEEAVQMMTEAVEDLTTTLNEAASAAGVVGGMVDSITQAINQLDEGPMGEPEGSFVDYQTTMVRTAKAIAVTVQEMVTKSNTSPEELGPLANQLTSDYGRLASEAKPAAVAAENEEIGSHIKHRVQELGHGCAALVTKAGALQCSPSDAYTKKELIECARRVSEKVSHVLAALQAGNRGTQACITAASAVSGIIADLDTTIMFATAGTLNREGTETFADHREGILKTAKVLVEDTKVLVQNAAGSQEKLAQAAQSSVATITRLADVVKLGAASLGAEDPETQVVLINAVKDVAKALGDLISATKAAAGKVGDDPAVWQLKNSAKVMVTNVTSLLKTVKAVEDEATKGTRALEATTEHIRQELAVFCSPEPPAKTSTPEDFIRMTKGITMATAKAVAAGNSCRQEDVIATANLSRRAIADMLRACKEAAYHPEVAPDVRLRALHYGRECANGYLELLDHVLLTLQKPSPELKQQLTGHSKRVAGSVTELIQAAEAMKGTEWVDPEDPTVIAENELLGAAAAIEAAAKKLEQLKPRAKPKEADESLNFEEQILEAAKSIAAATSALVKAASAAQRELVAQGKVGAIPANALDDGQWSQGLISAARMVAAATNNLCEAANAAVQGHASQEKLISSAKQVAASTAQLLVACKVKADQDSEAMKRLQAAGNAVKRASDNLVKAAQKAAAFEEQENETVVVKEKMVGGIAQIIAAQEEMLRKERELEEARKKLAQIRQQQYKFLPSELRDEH
UniProt Q9Y6B6: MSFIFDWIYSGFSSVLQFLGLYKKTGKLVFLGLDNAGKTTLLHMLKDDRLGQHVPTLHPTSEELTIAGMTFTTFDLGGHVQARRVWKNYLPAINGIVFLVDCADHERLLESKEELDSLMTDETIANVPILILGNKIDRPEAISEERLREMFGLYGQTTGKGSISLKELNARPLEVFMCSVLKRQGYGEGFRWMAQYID
UniProt Q9Y496, whole entry: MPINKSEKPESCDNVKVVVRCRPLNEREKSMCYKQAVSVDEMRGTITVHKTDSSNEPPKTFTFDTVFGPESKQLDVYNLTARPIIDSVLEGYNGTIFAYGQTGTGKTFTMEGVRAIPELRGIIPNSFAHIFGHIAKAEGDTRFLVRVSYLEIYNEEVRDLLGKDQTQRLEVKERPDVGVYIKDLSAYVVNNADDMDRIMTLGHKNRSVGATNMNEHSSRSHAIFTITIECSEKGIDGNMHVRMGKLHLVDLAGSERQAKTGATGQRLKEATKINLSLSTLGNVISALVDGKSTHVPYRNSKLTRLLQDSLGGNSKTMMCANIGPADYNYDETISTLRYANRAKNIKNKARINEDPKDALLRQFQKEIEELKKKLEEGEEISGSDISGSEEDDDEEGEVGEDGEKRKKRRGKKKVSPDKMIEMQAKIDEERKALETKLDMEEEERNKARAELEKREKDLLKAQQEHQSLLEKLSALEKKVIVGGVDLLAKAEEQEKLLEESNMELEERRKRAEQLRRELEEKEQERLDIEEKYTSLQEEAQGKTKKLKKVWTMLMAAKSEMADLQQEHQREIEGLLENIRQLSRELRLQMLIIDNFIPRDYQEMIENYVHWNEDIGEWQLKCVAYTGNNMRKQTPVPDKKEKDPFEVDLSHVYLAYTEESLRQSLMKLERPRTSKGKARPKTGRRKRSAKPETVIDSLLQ
UniProt Q9Y6D5: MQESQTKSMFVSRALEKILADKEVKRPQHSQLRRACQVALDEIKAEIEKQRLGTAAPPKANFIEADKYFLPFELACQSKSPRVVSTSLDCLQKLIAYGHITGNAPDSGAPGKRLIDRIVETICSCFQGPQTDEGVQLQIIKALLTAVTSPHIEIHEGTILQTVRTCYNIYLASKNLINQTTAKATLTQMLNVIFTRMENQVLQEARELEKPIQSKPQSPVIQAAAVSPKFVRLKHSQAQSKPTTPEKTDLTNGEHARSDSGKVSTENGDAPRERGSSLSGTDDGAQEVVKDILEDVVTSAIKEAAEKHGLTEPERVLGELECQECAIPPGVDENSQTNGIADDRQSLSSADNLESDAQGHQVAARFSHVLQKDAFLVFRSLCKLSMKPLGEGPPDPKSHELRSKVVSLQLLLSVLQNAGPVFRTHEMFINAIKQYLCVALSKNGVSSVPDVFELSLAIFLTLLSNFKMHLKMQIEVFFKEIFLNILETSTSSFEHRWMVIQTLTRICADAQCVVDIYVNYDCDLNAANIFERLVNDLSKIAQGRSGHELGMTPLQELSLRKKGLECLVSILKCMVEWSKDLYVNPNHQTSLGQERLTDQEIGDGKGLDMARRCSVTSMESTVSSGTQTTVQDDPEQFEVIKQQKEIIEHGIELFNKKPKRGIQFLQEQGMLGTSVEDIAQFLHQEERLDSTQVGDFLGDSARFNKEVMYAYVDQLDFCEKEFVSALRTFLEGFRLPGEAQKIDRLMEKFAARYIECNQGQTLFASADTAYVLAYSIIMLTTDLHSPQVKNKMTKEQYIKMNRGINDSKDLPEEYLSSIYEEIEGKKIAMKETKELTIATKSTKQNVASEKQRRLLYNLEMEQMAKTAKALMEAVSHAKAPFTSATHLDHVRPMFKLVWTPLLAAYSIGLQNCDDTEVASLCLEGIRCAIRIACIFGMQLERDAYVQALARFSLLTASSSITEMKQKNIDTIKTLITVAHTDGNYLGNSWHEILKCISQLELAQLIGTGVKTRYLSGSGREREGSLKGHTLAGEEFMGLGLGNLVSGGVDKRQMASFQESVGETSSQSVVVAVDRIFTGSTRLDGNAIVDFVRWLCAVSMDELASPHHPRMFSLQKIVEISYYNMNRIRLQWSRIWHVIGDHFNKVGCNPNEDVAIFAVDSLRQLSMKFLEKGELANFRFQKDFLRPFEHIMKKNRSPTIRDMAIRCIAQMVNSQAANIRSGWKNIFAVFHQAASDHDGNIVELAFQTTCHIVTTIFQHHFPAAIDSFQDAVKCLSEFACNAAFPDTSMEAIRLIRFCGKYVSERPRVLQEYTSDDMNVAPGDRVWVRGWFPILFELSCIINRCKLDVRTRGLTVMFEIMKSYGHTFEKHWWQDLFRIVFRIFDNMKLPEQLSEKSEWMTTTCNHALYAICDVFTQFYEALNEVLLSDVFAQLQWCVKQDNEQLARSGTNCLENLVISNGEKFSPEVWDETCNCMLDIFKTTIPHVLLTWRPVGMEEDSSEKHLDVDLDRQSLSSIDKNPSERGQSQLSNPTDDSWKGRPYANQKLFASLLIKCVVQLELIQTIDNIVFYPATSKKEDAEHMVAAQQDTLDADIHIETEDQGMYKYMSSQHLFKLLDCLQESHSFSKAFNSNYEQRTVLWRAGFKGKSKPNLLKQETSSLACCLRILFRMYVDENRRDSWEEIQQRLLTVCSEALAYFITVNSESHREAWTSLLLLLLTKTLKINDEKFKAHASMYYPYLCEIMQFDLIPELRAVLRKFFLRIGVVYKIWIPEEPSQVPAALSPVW
UniProt Q9Y678: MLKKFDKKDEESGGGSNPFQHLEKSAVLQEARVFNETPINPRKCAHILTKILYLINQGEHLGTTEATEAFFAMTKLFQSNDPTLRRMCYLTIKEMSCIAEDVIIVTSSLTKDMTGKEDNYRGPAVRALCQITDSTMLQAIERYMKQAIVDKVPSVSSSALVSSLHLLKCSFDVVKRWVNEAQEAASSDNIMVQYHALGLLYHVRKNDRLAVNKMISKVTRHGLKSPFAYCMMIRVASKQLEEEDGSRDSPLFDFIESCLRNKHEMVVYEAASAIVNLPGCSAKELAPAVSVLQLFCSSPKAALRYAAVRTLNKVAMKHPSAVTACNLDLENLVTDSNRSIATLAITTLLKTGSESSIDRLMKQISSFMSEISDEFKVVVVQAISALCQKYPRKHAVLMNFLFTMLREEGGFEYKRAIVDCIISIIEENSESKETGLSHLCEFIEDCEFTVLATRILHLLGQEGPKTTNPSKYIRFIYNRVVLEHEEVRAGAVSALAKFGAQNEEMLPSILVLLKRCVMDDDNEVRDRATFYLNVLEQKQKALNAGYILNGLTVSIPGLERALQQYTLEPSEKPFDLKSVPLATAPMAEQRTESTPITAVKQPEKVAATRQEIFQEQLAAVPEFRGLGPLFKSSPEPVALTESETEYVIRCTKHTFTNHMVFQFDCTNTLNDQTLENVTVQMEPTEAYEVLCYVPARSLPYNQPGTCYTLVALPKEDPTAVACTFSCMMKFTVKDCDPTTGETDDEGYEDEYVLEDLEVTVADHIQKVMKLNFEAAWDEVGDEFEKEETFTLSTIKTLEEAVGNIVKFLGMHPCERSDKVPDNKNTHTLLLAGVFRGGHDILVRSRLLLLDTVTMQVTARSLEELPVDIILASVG

Compound: COC(=O)/C=C/c1ccccc1 [methyl cinnamate]
Assay: log2 ratio of iodoacetamide-alkyne labeling of the cysteine site, DMSO over compound (competition); higher = stronger covalent engagement of the cysteine by the compound, active = 1 or more
Settings: 500 µM; treatment time 1 h; system: HEK293T cell lysate
Procedure, shortened: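 HEK293T lysate (2 mg/mL) was incubated with electrophile (500 µM) or vehicle for 1 h at ambient temperature and then with iodoacetamide alkyne for 1 h. Labelled proteins were clicked to sCIP-TMT reagents, pooled, digested, enriched on streptavidin and measured by Orbitrap Eclipse LC-MS/MS with FAIMS, with FragPipe quantification. The per-cysteine log2 competition ratio is mean control-channel reporter intensity over mean compound-channel reporter intensity. Across three replicates with duplicate channels, cysteines quantified in only one replicate were excluded.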

log2 ratio of iodoacetamide-alkyne labeling, inactive:
PPME1 C238 (UniProt Q9Y570) 0.289
AUP1 C391 (UniProt Q9Y679) 0.0496
ARIH1 C327 (UniProt Q9Y4X5) 0.287
YTHDF2 C482 (UniProt Q9Y5A9) -0.00989
WASF2 C27 (UniProt Q9Y6W5) -0.301
UniProt Q9Y5Q3_C64 0.298
SRPRB C246 (UniProt Q9Y5M8) 0.225
LSM4 C32 (UniProt Q9Y4Z0) 0.0973
SEC23IP C457 (UniProt Q9Y6Y8) -0.0965
TELO2 C518 (UniProt Q9Y4R8) -0.488
TLN1 C1558 (UniProt Q9Y490) 0.388
TLN1 C286 (UniProt Q9Y490) 0.33
SAR1B C102 (UniProt Q9Y6B6) -0.484
NUBP2 C54 (UniProt Q9Y5Y2) 0.217
TLN1 C1363 (UniProt Q9Y490) 0.213
KIF3A C621 (UniProt Q9Y496) 0.107
UniProt Q9Y4B6_C1070 0.039
TACC3 C459 (UniProt Q9Y6A5) 0.0308
MTCH2 C49 (UniProt Q9Y6C9) -0.181
UniProt Q9Y520_C895 0.292
TCAF1 C487 (UniProt Q9Y4C2) 0.213
TLN1 C1434 (UniProt Q9Y490) -0.183
PSAT1 C80 (UniProt Q9Y617) 0.0881
RBM19 C293 (UniProt Q9Y4C8) -0.0474
TLN1 C2161 (UniProt Q9Y490) 0.0593
AFG3L2 C402 (UniProt Q9Y4W6) 0.0628
UniProt Q9Y6E0_C394 0.323
UTP18 C241 (UniProt Q9Y5J1) 0.0275
ARFGEF2 C1206 (UniProt Q9Y6D5) 0.153
UniProt Q9Y678_C516 0.146
UniProt Q9Y5J5_C87 -0.108

No new results follow: entries from further up.
log2 ratio of iodoacetamide-alkyne labeling, inactive:
UniProt Q9Y678_C516 0.146
UniProt Q9Y5J5_C87 -0.108
